Results as given in patent publication US20140044713A1.
Results are given in words; binding and its absence hold for the method and conditions named. For some assays here: In cells and extracts the contact can be indirect. Some entries that bind do so weakly or less than the wild type. For some assays here: Where a sequence is shown, tags or fusion partners need not be part of it.

The chains behind the UniProt entries cited, without tags or fusion partners. Where a name states a change or a piece, a line headed by the entry shows the natural chain unless it says otherwise. Residues count along the entry.
UniProt Q9BXB1, residues 25-951: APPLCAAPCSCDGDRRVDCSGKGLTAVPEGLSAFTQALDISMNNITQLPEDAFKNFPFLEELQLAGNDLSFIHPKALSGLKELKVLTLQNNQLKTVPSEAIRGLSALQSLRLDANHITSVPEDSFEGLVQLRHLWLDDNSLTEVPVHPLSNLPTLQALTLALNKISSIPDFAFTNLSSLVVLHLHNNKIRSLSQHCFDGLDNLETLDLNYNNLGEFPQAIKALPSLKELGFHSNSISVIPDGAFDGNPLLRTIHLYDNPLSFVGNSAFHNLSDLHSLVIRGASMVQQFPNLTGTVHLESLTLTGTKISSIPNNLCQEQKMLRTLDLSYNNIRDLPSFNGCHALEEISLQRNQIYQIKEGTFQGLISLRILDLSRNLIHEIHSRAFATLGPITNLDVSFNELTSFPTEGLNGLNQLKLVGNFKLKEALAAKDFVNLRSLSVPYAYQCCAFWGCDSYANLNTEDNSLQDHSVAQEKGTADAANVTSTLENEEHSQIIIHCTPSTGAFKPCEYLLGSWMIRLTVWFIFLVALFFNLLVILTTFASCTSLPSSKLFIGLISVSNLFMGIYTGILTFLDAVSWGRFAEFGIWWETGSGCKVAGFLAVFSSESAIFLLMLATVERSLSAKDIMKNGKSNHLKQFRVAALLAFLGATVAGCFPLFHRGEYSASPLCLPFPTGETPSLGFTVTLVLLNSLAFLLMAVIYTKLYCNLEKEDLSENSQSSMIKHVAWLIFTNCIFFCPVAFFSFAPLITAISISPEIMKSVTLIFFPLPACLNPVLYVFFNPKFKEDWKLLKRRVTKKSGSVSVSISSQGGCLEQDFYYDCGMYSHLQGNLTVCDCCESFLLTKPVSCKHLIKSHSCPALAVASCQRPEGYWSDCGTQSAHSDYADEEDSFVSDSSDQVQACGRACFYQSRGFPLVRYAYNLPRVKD
UniProt Q2MKA7: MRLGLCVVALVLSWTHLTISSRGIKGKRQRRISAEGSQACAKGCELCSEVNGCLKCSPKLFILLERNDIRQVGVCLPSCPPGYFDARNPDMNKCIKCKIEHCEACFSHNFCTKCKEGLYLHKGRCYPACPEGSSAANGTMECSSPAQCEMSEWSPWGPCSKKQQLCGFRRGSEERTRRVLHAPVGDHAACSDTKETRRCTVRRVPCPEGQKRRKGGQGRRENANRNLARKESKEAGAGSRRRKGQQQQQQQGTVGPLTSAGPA

Experiments:
[1] = biological target: T1, LGR5-543 (full exo domain of LGR5: CRL + Leucine rich repeats) (UniProt O75473); assay: gel filtration of purified proteins
T1 sequence (looked up): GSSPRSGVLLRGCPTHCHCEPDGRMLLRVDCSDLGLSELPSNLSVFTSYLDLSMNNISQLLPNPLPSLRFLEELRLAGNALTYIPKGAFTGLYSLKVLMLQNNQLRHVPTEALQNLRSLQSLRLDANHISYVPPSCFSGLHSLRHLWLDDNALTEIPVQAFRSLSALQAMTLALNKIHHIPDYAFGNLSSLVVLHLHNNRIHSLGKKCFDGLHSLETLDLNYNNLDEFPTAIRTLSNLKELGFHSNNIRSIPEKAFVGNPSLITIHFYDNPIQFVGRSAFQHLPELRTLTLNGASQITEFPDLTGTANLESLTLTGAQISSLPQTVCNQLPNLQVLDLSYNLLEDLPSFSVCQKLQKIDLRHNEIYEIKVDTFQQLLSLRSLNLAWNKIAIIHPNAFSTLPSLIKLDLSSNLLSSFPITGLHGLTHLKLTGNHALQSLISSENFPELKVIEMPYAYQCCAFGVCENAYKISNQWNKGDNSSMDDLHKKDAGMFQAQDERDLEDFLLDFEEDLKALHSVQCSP

[2] = biological target: T2, LGR5-478 (exo domain of LGR5 without the CRL region) (UniProt O75473); assay: gel filtration of purified proteins
T2 sequence (looked up): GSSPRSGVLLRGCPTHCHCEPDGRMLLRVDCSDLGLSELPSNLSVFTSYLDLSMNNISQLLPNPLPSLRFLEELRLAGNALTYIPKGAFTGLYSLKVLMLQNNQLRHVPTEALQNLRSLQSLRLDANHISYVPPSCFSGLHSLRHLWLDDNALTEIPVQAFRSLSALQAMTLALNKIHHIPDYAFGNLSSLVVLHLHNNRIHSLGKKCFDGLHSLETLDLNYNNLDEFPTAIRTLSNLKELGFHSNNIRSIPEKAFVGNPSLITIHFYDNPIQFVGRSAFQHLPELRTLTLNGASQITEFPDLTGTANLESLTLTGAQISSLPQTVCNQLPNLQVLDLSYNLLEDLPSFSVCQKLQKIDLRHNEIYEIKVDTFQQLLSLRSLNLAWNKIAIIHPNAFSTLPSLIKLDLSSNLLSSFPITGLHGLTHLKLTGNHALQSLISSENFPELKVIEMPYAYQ

[3] = biological target: T2, LGR5-478 (exo domain of LGR5 without the CRL region); assay: gel filtration of purified proteins (LGR5-478 incubated with the antibody)
[4] = biological target: T3, FLAG/HA-tagged Lgr5 (human) (UniProt O75473); assay: right panels: lysates of cells expressing Lgr5-FH incubated with Rspo1 after cell lysis, FLAG immunoprecipitation, anti-hIgG-Fc Western blot (anti-FLAG blot below shows the precipitated Lgr5 proteins)
T3 sequence (looked up): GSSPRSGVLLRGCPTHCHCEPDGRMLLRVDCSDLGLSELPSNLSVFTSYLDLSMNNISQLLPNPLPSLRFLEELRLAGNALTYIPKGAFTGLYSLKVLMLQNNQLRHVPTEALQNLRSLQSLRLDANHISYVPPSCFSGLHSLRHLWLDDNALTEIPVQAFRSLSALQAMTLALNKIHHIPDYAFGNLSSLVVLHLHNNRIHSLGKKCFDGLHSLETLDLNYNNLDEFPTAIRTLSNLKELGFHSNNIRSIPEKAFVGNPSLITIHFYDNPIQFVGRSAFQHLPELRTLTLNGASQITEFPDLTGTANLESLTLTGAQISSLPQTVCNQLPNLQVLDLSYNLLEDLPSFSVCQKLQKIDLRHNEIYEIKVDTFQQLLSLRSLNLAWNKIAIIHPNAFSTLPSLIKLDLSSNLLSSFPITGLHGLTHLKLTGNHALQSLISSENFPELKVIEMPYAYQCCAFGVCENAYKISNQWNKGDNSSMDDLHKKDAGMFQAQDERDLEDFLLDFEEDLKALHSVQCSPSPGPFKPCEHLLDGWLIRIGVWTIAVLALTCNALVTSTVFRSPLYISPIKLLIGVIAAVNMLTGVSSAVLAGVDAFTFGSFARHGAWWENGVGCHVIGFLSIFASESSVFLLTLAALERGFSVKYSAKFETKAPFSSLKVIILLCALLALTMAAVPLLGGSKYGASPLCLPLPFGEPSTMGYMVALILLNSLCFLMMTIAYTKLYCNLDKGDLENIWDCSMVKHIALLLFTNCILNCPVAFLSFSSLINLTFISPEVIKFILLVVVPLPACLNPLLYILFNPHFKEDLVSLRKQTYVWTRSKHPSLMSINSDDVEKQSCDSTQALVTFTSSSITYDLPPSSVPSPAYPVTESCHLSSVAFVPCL

[5] = biological target: T3, FLAG/HA-tagged Lgr5 (human); assay: Rspondin-Fc pull-down from transfected HEK293T cells, western blot
[6] = biological target: T4, FLAG/HA-tagged Lgr6 (human) (UniProt Q9HBX8); assay: as above
T4 sequence (looked up): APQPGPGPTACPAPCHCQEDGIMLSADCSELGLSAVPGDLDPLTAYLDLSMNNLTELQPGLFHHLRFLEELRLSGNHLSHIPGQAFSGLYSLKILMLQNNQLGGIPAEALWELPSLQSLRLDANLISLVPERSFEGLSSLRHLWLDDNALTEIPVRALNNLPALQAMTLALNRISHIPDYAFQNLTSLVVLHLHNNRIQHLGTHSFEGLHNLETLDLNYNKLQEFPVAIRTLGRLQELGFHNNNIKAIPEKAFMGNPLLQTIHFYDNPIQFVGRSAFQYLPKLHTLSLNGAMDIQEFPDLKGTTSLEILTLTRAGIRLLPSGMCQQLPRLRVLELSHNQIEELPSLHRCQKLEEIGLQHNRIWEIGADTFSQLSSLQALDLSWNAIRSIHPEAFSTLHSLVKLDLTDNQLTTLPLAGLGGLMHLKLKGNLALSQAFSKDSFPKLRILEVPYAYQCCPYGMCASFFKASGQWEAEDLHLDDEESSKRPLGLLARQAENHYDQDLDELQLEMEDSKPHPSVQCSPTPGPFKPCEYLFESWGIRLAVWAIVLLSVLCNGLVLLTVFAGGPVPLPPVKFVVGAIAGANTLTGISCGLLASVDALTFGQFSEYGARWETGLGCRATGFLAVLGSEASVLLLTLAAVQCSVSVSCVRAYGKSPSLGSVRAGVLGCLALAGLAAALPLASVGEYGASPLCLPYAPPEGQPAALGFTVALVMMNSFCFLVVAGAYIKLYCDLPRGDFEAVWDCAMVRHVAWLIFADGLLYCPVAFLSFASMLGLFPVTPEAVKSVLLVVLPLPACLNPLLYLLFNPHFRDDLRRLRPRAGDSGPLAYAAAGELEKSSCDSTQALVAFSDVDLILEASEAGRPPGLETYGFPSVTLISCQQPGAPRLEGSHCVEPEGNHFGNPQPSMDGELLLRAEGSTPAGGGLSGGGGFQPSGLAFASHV

[7] = biological target: FLAG/HA-tagged Lgr4 (human) (UniProt Q9BXB1); assay: as above
[8] = biological target: T3, FLAG/HA-tagged Lgr5 (human); assay: Rspo1-Fc (˜1 µg/ml) on transfected HEK293T cells, proteinG pull-down, FLAG western blot
[9] = biological target: T4, FLAG/HA-tagged Lgr6 (human); assay: as above
[10] = biological target: FLAG/HA-tagged Lgr4 (human) (UniProt Q9BXB1); assay: as above
[11] = biological target: T3, FLAG/HA-tagged Lgr5 (human); assay: Rspo1-Fc pull-down from HEK293T cells transfected with full-length or deleted Lgr5, western blot
[12] = biological target: T3, FLAG/HA-tagged Lgr5 (human); assay: Rspo1-Fc on transfected HEK293T cells, proteinG pull-down, FLAG western blot
[13] = biological target: T4, FLAG/HA-tagged Lgr6 (human); assay: as above
[14] = biological target: FLAG/HA-tagged Lgr4 (human) (UniProt Q9BXB1); assay: as above

Measured: binding

RSp1 (purified Rspondin1 of the gel filtration experiment, FIG. 26) (from UniProt Q2MKA7 21-263) (ligand)
binds: [1] | [2] | [3]

Rspo1-Fc fusion protein (from UniProt Q2MKA7 21-263)
not listed: [1] | [2] | [3]
binds: all other assays above
